# Screening data, single-dose tests

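Growth of Mycobacterium tuberculosis over 3 days (7H9 medium with glucose and tyloxapol); the read-out is not stated. Compounds at 50 µM. The record gives no direction; compounds that gave an IC50 in retests scored well above the rest, so higher reads as more growth inhibition. About 69,000 compounds were tested under these conditions; 1.1% (about 760) showed 50% or more at least once.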

Each number is a percent effect as filed.
The record does not define 0% and 100%; most values in the screen are far below 50% and negative numbers occur (in some assays of this library far below -100).
The compounds are a random part of those screened.
Two or more numbers in one place are separate tests of the same structure; such repeats can differ widely.

- Cc1ccc(NCc2cnc3n2CCN(c2ncccn2)CC3)nn1 | 20.91%
- CCn1c(NCC2CCCO2)nc2c(C)nn(C)c2c1=O (centres undefined) | 29.89% and 1.114%
- Cc1occc1C(=O)NCC(=O)NCCOc1ccc2c(c1)CCC2 | 16.41%
- CC(C)CNC(=O)c1sccc1-n1cnnn1 | 1.081%
- COc1ccccc1N1CCCC(Nc2ncccn2)C1=O (centres undefined) | -1.719% and 3.167%
- O=C(c1cccc(Cl)c1F)N1CCOC2(CNCCOC2)C1 (centres undefined) | -10.77%
- CC(C)[C@@H]1CN(C(=O)CN(C)Cc2ccc(F)cc2)C[C@H]1C(=O)O | -4.801% and -1.831%
- CN(CCCc1cnn(C)c1)C(=O)Nc1cccc2[nH]nnc12 | -9.774%
- COc1cccc2cc(CNC(=O)N3CCS(=O)(=O)CC3)oc12 | -47.3%
- CC(C)NC(=O)CN1CCSC2(CCCCC2)C1 | -48.98%
- O[C@H]1CN(Cc2cc3ccccc3o2)CC[C@@]12CCCO2 | 13.48%
- CCOCC(=O)N1C[C@@H](O)[C@H](N2CCN(c3ccccc3)CC2)C1 | -5.806%
- O=C(COCC1CC1)Nc1ncn(CC(=O)N2CCCCCC2)n1 | 1.089%
- Cc1cc(C(F)(F)F)nc(C2COCCN2S(C)(=O)=O)n1 (centres undefined) | -4.739%
- O=C(NCc1ccc(N2CCCC2)nc1)N1CCc2sccc2C1 | -9.586%
- CCOc1ncccc1NC(=O)N1CCN(c2cccc(C)c2C)CC1 | -0.6941%
- CN(CCC1CCCCO1)c1nncc(-c2ccccc2)n1 (centres undefined) | 55.57%
- CCOc1cccc2c1OCC(C(=O)NS(=O)(=O)c1ccc(Cl)s1)=C2 | 15.41%
- O=C(O)C(F)(F)F.[H][C@@]12CCN(Cc3ccco3)[C@@]1([H])CCC(=O)N2 | 13.59%
- CNc1cc(C)nc(NC2CCCN(C3Cc4ccccc4C3)C2)n1 (centres undefined) | -17.05% and 6.165%
- c1coc(CN2CCn3c(nc4ccccc43)C2)c1 | -26.93%
- CN1C(=O)C(c2cccnc2)CC12CCN(Cc1nccs1)CC2 (centres undefined) | -9.888%
- OCCc1ccccc1-n1ccnc1-c1cn(C2CCNCC2)nn1 | 7.883%
- Cc1ccc(CCCC(=O)N2CCC(=O)Nc3cccnc32)s1 | -1.403% and -20.85%
- NC(=O)c1ccc(C(=O)N2CCCC(n3ccnc3)C2)s1 (centres undefined) | 13.7%
- COCC1c2c(cnn2CC2CC2)CCN1Cc1ccsc1.O=C(O)C(F)(F)F.O=C(O)C(F)(F)F (centres undefined) | -0.9176%
- OC(CN1CCN(CC(F)F)CC1)c1ccc(Br)cc1 (centres undefined) | 0.6911%
- COCC(=O)N1CCC(c2cc3ncccc3c(O)n2)CC1 | -18.66%
- O=C(C1CCC1)N1CCc2[nH]cnc2C12CCN(C1CCOCC1)CC2 | -1.109%
- COc1cccc(C2=CCN(CCN3CCCC3=O)CC2)c1 | -12.12%
- CCc1nnc(NC(=O)NCCN(C)C(=O)OC(C)(C)C)s1 | -24.19%
- O=C(c1ccncc1)N1CCCC1c1cccc(Br)c1 (centres undefined) | -52.59%
- CC1COC2(CCN(C(=O)c3ncoc3C(C)C)CC2)O1 (centres undefined) | 30.18% and 32.43%
- CCn1cc(SCC(=O)N2CCCC(O)(CO)C2)c2ccccc21 (centres undefined) | 1.612%
- CC[C@@H](CO)NC(=O)c1coc(COc2ccc3sc(C)nc3c2)n1 | 20.01%
- CNc1cc2c(nn1)CCN(C(=O)c1cc(F)cc(F)c1)C2 | -2.877%
- CS(=O)(=O)N1CCN(C(=O)c2cc(-c3cccs3)cs2)CC1 | 4.988%

4 of the entries, repeated:

- NC(=O)c1ccc(C(=O)N2CCCC(n3ccnc3)C2)s1 (centres undefined) | 13.7%
- Cc1occc1C(=O)NCC(=O)NCCOc1ccc2c(c1)CCC2 | 16.41%
- CCOc1cccc2c1OCC(C(=O)NS(=O)(=O)c1ccc(Cl)s1)=C2 | 15.41%
- CN1C(=O)C(c2cccnc2)CC12CCN(Cc1nccs1)CC2 (centres undefined) | -9.888%

The values are deposited in ChEMBL (CHEMBL3988442, “University of Dundee, Small-Polar-MMV Screening Library” (2021)).